27 molecules from patent US20050277588A1 (AFFYMAX, published 2005) can be followed below.

For experiment [1], the target named is T1, granulocyte-colony stimulating factor receptor (G-CSFR), purified / soluble receptor used in the binding assays (UniProt Q99062).
T1 sequence (looked up): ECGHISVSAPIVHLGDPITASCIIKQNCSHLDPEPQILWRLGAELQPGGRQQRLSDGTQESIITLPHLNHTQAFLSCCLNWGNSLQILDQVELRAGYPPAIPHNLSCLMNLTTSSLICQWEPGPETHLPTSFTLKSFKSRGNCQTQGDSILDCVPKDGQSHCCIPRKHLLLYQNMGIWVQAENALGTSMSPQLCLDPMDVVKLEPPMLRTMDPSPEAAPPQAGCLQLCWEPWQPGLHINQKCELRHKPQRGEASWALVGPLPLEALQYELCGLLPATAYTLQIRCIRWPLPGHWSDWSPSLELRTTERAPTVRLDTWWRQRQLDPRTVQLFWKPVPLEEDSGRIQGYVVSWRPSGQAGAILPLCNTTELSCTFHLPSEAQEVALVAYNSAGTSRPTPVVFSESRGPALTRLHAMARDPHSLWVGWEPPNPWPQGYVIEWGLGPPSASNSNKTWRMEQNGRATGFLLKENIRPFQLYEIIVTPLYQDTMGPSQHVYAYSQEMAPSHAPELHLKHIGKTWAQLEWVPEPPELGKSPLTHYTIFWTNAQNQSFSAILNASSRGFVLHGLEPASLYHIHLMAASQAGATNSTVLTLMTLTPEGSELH
In words: specific binding to G-CSFR (total minus non-specific binding with excess unlabeled ligand).

Experiment [2] has as its target T1, granulocyte-colony stimulating factor receptor (G-CSFR), purified / soluble receptor used in the binding assays. In words: competitive binding: competition with 125I-G-CSF on plate-immobilised G-CSFR.

No constants are given. Whether binding was seen depends on the method and setting. Some results given as binding are weak or reduced against the parent protein; the word gives no strength.

For the molecule ETWGERDWFC [Example 21 peptide …], the binding result in experiment [1] and in experiment [2] was “binds” each time.

For the molecule QRANSGWVWV [Example 19 peptide …], the binding entry in experiment [1] is on record as “binds”.

Take DEMVYTVPYW [Example 31 peptide …]: the binding entry in experiment [1] and in experiment [2] was “binds” each time.

Regarding YETAERSYFC [Example 23 peptide …], the binding result in experiment [1] and in experiment [2] was “binds” each time.

CNREIEAMCC [Example 2 peptide …]: the binding result in experiment [1] and in experiment [2] was “binds” throughout.

Turning to ELSSEREWFC [Example 28 peptide …], the binding result in experiment [1] and in experiment [2] was “binds” throughout.

Consider STSERAWFCG [Example 26 peptide …], for which the binding result in experiment [1] and in experiment [2] was “binds” throughout.

For the molecule CPHWTSYYMC [Example 13 peptide …], the binding entry in experiment [1] and in experiment [2] was “binds” throughout.

Take CVPWMFYDLC [Example 6 peptide …]: the binding result in experiment [1] was “binds”.

For CDPWMFYDLC [Example 7 peptide …], the binding result in experiment [1] is given as “binds”.

For CADEVMHFCC [Example 3 peptide …], the binding result in experiment [1] and in experiment [2] was “binds” in each case.

In the case of DMQGERGWFC [Example 29 peptide …], the binding result in experiment [1] and in experiment [2] was “binds” throughout.

As for SRTESGWVWT [Example 18 peptide …], in experiment [1], the binding entry is “binds”.

In the case of CAGEVMHMCC [Example 1 peptide …], the binding result in experiment [1] and in experiment [2] was “binds” in each case.

Regarding CSFVQLNSIC [Example 5 peptide …], the binding result in experiment [1] and in experiment [2] was “binds” each time.

With CACMLRVVHC [Example 14 peptide …], the binding result in experiment [1] and in experiment [2] was “binds” in each case.

DWQKTIPAYW [Example 34 peptide …]: the binding result in experiment [1] and in experiment [2] was “binds” in each case.

Regarding CDVWQLFDRC [Example 4 peptide …], the binding result in experiment [1] and in experiment [2] was “binds” each time.

For the molecule DYDNSGWVWH [Example 20 peptide …], in experiment [1], the binding entry is listed as “binds”.

Regarding CPDWYQSYMC [Example 12 peptide …], the binding result in experiment [1] and in experiment [2] was “binds” throughout.

On to DTWLELESRY [Example 33 peptide …], for which the binding result in experiment [1] is “binds”.

With ASWSERGWFC [Example 27 peptide …], the binding entry in experiment [1] and in experiment [2] was “binds” throughout.

On to HTTNEQFFMC [Example 32 peptide …], for which the binding result in experiment [1] and in experiment [2] was “binds” in each case.

EQSNSGWVWV [Example 17 peptide …]: in experiment [1], the binding entry is “binds”.

For the molecule ADNAERGWFC [Example 24 peptide …], the binding entry in experiment [1] and in experiment [2] was “binds” in each case.

Take DMVYAYPPWS [Example 30 peptide …]: in experiment [1], the binding entry is reported as “binds”.

In the case of SNESGWVWLP [Example 16 peptide …], the binding result in experiment [1] is “binds”.
